No constants are given. Whether binding was seen depends on the method and setting. In cells and extracts the contact can be indirect. Some entries that bind do so weakly or less than the wild type.

Amino acid sequences for entries named in this document (tags omitted).
UniProt Q15910: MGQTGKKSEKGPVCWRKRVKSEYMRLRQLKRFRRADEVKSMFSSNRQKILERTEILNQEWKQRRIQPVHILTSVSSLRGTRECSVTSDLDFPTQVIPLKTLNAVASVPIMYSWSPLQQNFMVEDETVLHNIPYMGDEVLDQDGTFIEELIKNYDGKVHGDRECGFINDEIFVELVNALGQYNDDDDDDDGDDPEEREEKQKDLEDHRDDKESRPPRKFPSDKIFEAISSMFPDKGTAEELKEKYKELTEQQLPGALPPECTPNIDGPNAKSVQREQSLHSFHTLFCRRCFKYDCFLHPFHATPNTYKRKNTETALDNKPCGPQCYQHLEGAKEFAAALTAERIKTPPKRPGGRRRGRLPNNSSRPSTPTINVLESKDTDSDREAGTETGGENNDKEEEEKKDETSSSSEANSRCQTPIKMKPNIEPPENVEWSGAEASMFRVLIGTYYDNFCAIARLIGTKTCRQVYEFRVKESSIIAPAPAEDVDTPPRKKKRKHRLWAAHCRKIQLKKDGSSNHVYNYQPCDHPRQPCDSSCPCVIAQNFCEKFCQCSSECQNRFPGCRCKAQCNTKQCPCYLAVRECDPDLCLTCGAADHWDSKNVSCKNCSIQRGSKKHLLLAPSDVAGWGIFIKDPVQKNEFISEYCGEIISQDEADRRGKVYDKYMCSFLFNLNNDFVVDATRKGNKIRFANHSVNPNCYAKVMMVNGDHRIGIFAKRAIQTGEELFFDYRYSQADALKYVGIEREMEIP

The source of these data is PMC11322866.

The target of this experiment is enhancer of zeste homolog 2 (human (endogenous in RPMI-8226 and OCI-MY5)) (UniProt Q15910). The experiment in a line: co-IP; total protein lysates of RPMI-8226 and OCI-MY5 cells; immunoprecipitation with anti-RRM2 and anti-EZH2 antibodies and protein A/G agarose resin, washed with lysis buffer, western blot. For orientation: In western blotting, separated proteins are transferred to a membrane and probed.

B1: ribonucleotide reductase regulatory subunit M2 (protein, UniProt P31350 1-389)
chain: MLSLRVPLAPITDPQQLQLSPLKGLSLVDKENTPPALSGTRVLASKTARRIFQEPTEPKTKAAAPGVEDEPLLRENPRRFVIFPIEYHDIWQMYKKAEASFWTAEEVDLSKDIQHWESLKPEERYFISHVLAFFAASDGIVNENLVERFSQEVQITEARCFYGFQIAMENIHSEMYSLLIDTYIKDPKEREFLFNAIETMPCVKKKADWALRWIGDKEATYGERVVAFAAVEGIFFSGSFASIFWLKKRGLMPGLTFSNELISRDEGLHCDFACLMFKHLVHKPSEERVREIIINAVRIEQEFLTEALPVKLIGMNCTLMKQYIEFVADRLMLELGFSKVFRVENPFDFMENISLEGKTNFFEKRVGEYQRMGVMSSPTENSFTLDADF
In the case of B1, the binding result is on record as “binds”.
